Measured values from article PMC3316588.
Results are given in words; binding and its absence hold for the method and conditions named. Binding seen in cells or lysates may run through a third protein. Some binding calls cover weakened binding; strength is not graded here.

Chains of the proteins cited; added tags and fusions are not shown. Residues count along the entry.
UniProt P62137: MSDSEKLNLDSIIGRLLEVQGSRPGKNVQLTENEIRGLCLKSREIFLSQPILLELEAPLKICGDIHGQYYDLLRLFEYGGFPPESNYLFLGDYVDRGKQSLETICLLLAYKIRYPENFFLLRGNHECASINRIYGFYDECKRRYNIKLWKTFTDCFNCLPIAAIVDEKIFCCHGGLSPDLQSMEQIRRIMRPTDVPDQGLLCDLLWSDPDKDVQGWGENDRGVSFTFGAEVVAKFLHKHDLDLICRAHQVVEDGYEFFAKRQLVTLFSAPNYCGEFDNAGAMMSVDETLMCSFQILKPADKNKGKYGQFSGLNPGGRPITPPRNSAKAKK
UniProt Q01097, residues 27-1482: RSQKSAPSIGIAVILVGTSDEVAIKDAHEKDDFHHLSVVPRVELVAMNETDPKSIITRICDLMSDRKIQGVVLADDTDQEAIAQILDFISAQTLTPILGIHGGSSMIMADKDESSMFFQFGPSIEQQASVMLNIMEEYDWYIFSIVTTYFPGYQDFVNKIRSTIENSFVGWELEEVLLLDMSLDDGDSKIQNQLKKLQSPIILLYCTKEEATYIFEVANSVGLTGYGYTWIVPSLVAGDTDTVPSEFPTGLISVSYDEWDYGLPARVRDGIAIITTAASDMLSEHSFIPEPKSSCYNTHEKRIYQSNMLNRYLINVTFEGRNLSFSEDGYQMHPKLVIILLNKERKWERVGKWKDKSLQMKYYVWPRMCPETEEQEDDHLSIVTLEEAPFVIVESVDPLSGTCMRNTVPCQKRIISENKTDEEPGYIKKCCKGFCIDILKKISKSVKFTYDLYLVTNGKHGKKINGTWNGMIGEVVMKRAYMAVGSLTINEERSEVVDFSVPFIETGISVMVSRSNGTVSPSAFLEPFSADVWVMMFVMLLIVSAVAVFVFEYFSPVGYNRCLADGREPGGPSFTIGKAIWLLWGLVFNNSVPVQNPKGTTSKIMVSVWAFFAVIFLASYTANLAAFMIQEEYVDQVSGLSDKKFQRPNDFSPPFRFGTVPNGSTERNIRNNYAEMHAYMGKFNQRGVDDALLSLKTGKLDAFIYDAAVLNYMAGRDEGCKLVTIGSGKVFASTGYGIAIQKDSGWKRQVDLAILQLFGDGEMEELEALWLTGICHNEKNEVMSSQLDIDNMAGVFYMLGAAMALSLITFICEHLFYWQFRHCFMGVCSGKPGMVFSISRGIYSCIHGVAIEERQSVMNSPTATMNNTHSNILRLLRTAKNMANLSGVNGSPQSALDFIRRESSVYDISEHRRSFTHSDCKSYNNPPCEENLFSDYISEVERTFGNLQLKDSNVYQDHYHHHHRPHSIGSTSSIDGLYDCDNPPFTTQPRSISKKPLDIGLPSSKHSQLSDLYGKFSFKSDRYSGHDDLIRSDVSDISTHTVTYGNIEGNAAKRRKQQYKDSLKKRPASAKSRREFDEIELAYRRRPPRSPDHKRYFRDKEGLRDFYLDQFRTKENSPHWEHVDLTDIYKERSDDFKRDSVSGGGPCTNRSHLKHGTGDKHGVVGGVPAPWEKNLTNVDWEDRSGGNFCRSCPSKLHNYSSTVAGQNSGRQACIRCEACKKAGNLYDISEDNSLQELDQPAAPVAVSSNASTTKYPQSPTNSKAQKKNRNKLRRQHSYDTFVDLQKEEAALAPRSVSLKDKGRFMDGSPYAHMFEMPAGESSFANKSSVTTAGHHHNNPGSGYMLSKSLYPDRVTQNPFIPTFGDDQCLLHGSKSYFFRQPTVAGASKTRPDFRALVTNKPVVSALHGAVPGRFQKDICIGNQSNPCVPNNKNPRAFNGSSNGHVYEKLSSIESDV

Target: protein phosphatase-1 alpha (PP1α) (mouse (endogenous in hippocampus)) (UniProt P62137)
Experiment: co-IP; whole mouse hippocampus lysate (50 mM Tris, 120 mM NaCl, 0.5% NP-40); IP with rabbit polyclonal anti-PP1α, pansorbin-protein A beads, 4°C; washed in high-salt buffer (500 mM NaCl, 1% NP-40); blots for NR2B and NR1; rabbit IgG as control

binding: binds
Substance: NMDA receptor subunit NR2B (from UniProt Q01097 27-1482)
